Consider 1 molecule from paper PMC9436816.

Amino acid sequences for entries named in this document (tags omitted).
UniProt P14618: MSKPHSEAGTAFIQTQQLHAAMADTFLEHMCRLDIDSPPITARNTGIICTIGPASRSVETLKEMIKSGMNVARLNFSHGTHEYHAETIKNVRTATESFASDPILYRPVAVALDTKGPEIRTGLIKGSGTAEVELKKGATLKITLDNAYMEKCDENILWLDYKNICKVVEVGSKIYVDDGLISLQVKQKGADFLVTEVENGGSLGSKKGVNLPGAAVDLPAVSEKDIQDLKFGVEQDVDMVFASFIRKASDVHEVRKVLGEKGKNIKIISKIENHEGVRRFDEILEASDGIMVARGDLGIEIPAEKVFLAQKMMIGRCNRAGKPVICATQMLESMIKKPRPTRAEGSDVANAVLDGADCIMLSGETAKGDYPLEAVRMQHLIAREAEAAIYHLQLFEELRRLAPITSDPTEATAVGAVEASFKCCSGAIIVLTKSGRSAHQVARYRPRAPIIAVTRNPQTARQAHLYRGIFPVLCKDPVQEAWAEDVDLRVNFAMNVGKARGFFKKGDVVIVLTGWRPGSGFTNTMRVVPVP

The target in the assay is pyruvate kinase M2 (PKM2), endogenous (human (endogenous in A549)) (UniProt P14618). The assay is described as follows: co-IP; endogenous proteins of A549 lysate, IP with PKM2 or OGT antibody, WB; cells with or without EGF (100 ng/ml, 1 h), or serum-deprived and transfected with EGFR or EGFRvIII.

Results are given in words; binding and its absence hold for the method and conditions named. Binding seen in cells or lysates may run through a third protein. Some entries that bind do so weakly or less than the wild type.

B1: O-GlcNAcase (OGA), endogenous (enzyme, UniProt O60502 1-916)
chain: MVQKESQATLEERESELSSNPAASAGASLEPPAAPAPGEDNPAGAGGAAVAGAAGGARRFLCGVVEGFYGRPWVMEQRKELFRRLQKWELNTYLYAPKDDYKHRMFWREMYSVEEAEQLMTLISAAREYEIEFIYAISPGLDITFSNPKEVSTLKRKLDQVSQFGCRSFALLFDDIDHNMCAADKEVFSSFAHAQVSITNEIYQYLGEPETFLFCPTEYCGTFCYPNVSQSPYLRTVGEKLLPGIEVLWTGPKVVSKEIPVESIEEVSKIIKRAPVIWDNIHANDYDQKRLFLGPYKGRSTELIPRLKGVLTNPNCEFEANYVAIHTLATWYKSNMNGVRKDVVMTDSEDSTVSIQIKLENEGSDEDIETDVLYSPQMALKLALTEWLQEFGVPHQYSSRQVAHSGAKASVVDGTPLVAAPSLNATTVVTTVYQEPIMSQGAALSGEPTTLTKEEEKKQPDEEPMDMVVEKQEETDHKNDNQILSEIVEAKMAEELKPMDTDKESIAESKSPEMSMQEDCISDIAPMQTDEQTNKEQFVPGPNEKPLYTAEPVTLEDLQLLADLFYLPYEHGPKGAQMLREFQWLRANSSVVSVNCKGKDSEKIEEWRSRAAKFEEMCGLVMGMFTRLSNCANRTILYDMYSYVWDIKSIMSMVKSFVQWLGCRSHSSAQFLIGDQEPWAFRGGLAGEFQRLLPIDGANDLFFQPPPLTPTSKVYTIRPYFPKDEASVYKICREMYDDGVGLPFQSQPDLIGDKLVGGLLSLSLDYCFVLEDEDGICGYALGTVDVTPFIKKCKISWIPFMQEKYTKPNGDKELSEAEKIMLSFHEEQEVLPETFLANFPSLIKMDIHKKVTDPSVAKSMMACLLSSLKANGSRGAFCEVRPDDKRILEFYSKLGCFEIAKMEGFPKDVVILGRSL
B1: the binding entry is “binds”.
